Literature values, collected in patent US12637432B2, “Inhibitors of ACK1/TNK2 tyrosine kinase” (H. LEE MOFFITT CANCER CENTER AND RESEARCH INSTITUTE, INC., priority 2020, dated 2026).
At least one compound was matched to its structure with a doubt left.

System: ACK1 and Lck
Conditions: inhibition ratio; cited from earlier work

c1ccc(-c2oc3ncnc(NC[C@@H]4CCCO4)c3c2-c2ccccc2)cc1 [Compound 1b]
ACK1:Lck: 5:1
